pIC50: −log10 of the molar value.
What was measured:
Assay type in all cases: cell-based
MDA-MB-231 = test: Cell viability assay (CCK-8), MDA-MB-231; details: Homo sapiens, MDA-MB-231, 72 h, TNBC cell line; CCK-8, 72 h, 0.156 to 40 μM
Experimental: (§1) Four human TNBC cell lines (MDA-MB-231, MDA-MB-453, SUM-159, and BT-20), a non-TNBC breast cancer cell line (MCF-7) and a normal mammary epithelial cell line (MCF-10A) were cultured with DMEM (phenol free) supplemented with 2.5% CS-FBS and 1% L-Glu. 1.2 × 10^3 of cells were seeded into 384-well microplates and maintained for 24 h in an incubator at 37 °C in a 5% CO2, saturated humidified atmosphere. […] […] Then CCK-8 solution was added into cells and incubated for another 4 h. Absorbance was measured with a Microplate Reader at 450/600 nm. The IC50 values of the compounds on TNBC cell lines were derived using GraphPad Prism 5.0 (GraphPad Software, Inc., La Jolla, CA, USA).

MDA-MB-453 = test: Cell viability assay (CCK-8), MDA-MB-453; details: Homo sapiens, TNBC cell line, CCK-8, 72 h, 0.156 to 40 μM
Experimental: (§2) Four human TNBC cell lines (MDA-MB-231, MDA-MB-453, SUM-159, and BT-20), a non-TNBC breast cancer cell line (MCF-7) and a normal mammary epithelial cell line (MCF-10A) were cultured with DMEM (phenol free) supplemented with 2.5% CS-FBS and 1% L-Glu. 1.2 × 10^3 of cells were seeded into 384-well microplates and maintained for 24 h in an incubator at 37 °C in a 5% CO2, saturated humidified atmosphere. Different compounds were added into cells with 9 concentrations from 0.156 to 40 μM for 72 h. […] Then CCK-8 solution was added into cells and incubated for another 4 h. Absorbance was measured with a Microplate Reader at 450/600 nm. The IC50 values of the compounds on TNBC cell lines were derived using GraphPad Prism 5.0 (GraphPad Software, Inc., La Jolla, CA, USA).

BT-20 = test: Cell viability assay (CCK-8), BT-20; details: Homo sapiens, TNBC cell line, CCK-8, 72 h, 0.156 to 40 μM
Experimental: as §2

MCF-7 = test: Cell viability assay (CCK-8), MCF-7; details: Homo sapiens, MCF7, 72 h, non-TNBC breast cancer cell line; CCK-8, 72 h
Experimental: as §1

MCF-10A = test: Cell viability assay (CCK-8), MCF-10A; details: Homo sapiens, normal mammary epithelial cell line, CCK-8, 72 h
Experimental: as §2

CC/C(=C(\c1ccccc1)c1ccc(OCCN(C)C)cc1)c1ccccc1 [Tamoxifen, reference compound]
pIC50 (MDA-MB-231): 5.69 | pIC50 (MDA-MB-453): 5.44 | pIC50 (BT-20): 5.07 | pIC50 (MCF-7): 5.04 | pIC50 (MCF-10A): < 4.40

Reference: paper PMC6017705, “Discovery of N-(Naphtho[1,2-b]Furan-5-Yl) Benzenesulfonamides as Novel Selective Inhibitors of Triple-Negative Breast Cancer (TNBC)” (Molecules : A Journal of Synthetic Chemistry and Natural …, 2018)
